{"sequences": {"note": "Amino acid sequences for entries named in this document (tags omitted). A change or cut given only in a name is not applied to a line headed by its entry.", "UniProt Q96524, whole entry": "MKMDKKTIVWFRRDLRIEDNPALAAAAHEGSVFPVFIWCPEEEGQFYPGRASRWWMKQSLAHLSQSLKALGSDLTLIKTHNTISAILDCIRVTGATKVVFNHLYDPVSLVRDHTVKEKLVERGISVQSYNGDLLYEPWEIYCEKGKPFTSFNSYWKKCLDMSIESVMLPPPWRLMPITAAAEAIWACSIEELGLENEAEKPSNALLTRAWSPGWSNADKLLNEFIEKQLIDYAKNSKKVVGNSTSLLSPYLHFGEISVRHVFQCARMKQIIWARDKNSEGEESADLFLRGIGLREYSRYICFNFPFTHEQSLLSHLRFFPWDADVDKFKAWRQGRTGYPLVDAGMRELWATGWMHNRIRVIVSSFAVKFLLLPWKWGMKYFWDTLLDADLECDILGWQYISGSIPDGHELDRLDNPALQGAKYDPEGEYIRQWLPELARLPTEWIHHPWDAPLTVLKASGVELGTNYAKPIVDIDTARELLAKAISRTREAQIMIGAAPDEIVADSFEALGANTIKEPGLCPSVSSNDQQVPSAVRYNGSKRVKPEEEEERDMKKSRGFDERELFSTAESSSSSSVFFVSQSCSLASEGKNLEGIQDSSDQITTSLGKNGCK"}, "source": "paper doi:10.1101/2021.04.29.441934", "key": {"[1]": {"target": "Flash-CRY2 (UBQ10pro::Flash-CRY2) expressed in N. benthamiana (Arabidopsis thaliana) (UniProt Q96524)", "assay": "co-IP"}, "[2]": {"target": "T1, COP1-6xHis-3xFlag (Arabidopsis thaliana) (UniProt P43254)", "T1 sequence": "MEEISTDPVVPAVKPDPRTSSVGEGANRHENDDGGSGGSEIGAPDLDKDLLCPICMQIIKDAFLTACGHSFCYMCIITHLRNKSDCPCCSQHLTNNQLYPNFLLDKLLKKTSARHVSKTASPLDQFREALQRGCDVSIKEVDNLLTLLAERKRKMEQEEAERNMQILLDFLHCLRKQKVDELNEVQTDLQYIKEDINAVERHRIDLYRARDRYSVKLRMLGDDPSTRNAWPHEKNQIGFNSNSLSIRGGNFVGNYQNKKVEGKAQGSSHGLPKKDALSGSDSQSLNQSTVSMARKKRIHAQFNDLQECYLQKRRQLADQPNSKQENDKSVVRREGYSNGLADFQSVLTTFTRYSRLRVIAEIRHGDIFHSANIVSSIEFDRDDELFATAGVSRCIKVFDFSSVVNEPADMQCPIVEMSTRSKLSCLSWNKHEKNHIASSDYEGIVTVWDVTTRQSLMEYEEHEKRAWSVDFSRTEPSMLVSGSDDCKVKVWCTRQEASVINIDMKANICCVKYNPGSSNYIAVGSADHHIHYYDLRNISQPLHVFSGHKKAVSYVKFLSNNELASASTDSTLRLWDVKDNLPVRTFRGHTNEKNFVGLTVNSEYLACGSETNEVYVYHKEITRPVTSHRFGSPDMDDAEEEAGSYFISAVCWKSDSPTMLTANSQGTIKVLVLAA", "assay": "co-IP"}, "[3]": {"target": "Flash-CRY2 (UBQ10pro::Flash-CRY2) expressed in N. benthamiana (Arabidopsis thaliana) (UniProt Q96524)", "assay": "co-IP", "remark": "listed apart in the source"}, "[4]": {"target": "9×Myc-6×His-3×Flag-CRY2 (Arabidopsis thaliana) (UniProt Q96524)", "assay": "co-IP"}, "[5]": {"target": "T2, COP1-nVenus (Arabidopsis thaliana) (UniProt P43254)", "T2 sequence": "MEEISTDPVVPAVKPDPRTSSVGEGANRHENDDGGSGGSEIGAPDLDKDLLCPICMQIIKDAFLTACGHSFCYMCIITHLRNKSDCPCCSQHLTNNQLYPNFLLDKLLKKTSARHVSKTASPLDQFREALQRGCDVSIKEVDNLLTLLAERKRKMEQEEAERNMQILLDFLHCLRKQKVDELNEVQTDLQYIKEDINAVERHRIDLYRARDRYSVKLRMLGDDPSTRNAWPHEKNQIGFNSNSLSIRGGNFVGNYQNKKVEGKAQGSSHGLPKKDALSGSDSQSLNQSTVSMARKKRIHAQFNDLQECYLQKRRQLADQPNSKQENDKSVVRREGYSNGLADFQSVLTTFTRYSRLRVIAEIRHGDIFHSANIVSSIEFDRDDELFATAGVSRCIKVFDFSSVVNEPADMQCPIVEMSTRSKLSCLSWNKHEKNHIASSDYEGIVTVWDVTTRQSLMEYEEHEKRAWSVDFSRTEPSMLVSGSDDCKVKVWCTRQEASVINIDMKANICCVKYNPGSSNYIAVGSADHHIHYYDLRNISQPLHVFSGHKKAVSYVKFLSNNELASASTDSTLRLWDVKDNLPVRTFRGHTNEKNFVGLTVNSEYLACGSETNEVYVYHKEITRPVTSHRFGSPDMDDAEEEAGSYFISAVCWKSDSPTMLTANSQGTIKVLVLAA", "assay": "split reporter"}, "[6]": {"target": "nVenus-CRY2 (Arabidopsis thaliana) (UniProt Q96524)", "assay": "split reporter"}}, "note": "Where two headings read alike, the source gives them in different places. These are yes or no findings as the source states them, for the method shown. In cells and extracts the contact can be indirect. Some binding calls cover weakened binding; strength is not graded here. For some of these results: Where a sequence is shown, tags or fusion partners need not be part of it.", "data": [{"molecule": "UBP13ΔMATH-6xHA (from UniProt Q84WU2 179-1115) (domain or fragment)", "values": [{"measurement": "binding", "setting": "[1]", "result": "no binding"}]}, {"molecule": "UBP13ΔMATH-6xHA (domain or fragment, UniProt Q84WU2 179-1115) AVRKVLDYWSYDSKKETGFVGLKNQGATCYMNSLLQTLYHIPYFRKAVYHMPTTENDAPTASIPLALQSLFYKLQYNDTSVATKELTKSFGWDTYDSFMQHDVQELNRVLCEKLEDKMKGTVVEGTIQKLFEGHHMNYIECINVDYKSTRKESFYDLQLDVKGCKDVYASFDKYVEVERLEGDNKYHAEGHDLQDAKKGVLFIDFPPVLQLQLKRFEYDFMRDTMVKINDRYEFPLQLDLDREDGRYLSPDADKSVRNLYTLHSVLVHSGGVHGGHYYAFIRPTLSDQWYKFDDERVTKEDVKRALEEQYGGEEELPQNNPGFNNPPFKFTKYSNAYMLVYIRESDKDKIICNVDEKDIAEHLRVRLKKEQEEKEDKRKYKAQAHLFTTIKVARDDDITEQIGKNIYFDLVDHEKVRSFRIQKQTPFQQFKEEVAKEFGVPVQLQRFWIWAKRQNHTYRPNRPLSPNEELQTVGQIREASNKANNAELKLFLEIERGPDDLPIPPPEKTSEDILLFFKLYDPENAVLRYVGRLMVKSSSKPMDIVGQLNKMAGFAPDEEIELFEEIKFEPCVMCEQIDKKTSFRLCQIEDGDIICYQKPLSIEESEFRYPDVPSFLEYVQNRELVRFRTLEKPKEDEFTMELSKLHTYDDVVERVAEKLGLDDPSKLRLTSHNCYSQQPKPQPIKYRGVDHLSDMLVHYNQTSDILYYEVLDIPLPELQGLKTLKVAFHSATKDEVIIHNIRLPKQSTVGDVINELKTKVELSHQDAELRLLEVFFHKIYKIFPSTERIENINDQYWTLRAEEIPEEEKNIGPNDRLIHVYHFTKEAGQNQQVQNFGEPFFLVIHEGETLEEIKTRIQKKLHVPDEDFAKWKFASFSMGRPDYLLDTDVVYNRFQRRDVYGAWEQYLGLEHIDNAPKRAYAANQNRHAYEKPVKIYN", "values": [{"measurement": "binding", "setting": "[2]", "result": "binds"}]}, {"molecule": "UBP13-6xHA expressed in N. benthamiana (enzyme, UniProt Q84WU2 1-1115) MTMMTPPPLDQQEDEEMLVPNPDLVEGPQPMEVAQTDPAATAVENPPPEDPPSLKFTWTIPMFTRLNTRKHYSDVFVVGGYKWRILIFPKGNNVDHLSMYLDVADAANLPYGWSRYSQFSLAVVNQVNNRYSIRKETQHQFNARESDWGFTSFMPLSELYEPTRGYLVNDTVLIEAEVAVRKVLDYWSYDSKKETGFVGLKNQGATCYMNSLLQTLYHIPYFRKAVYHMPTTENDAPTASIPLALQSLFYKLQYNDTSVATKELTKSFGWDTYDSFMQHDVQELNRVLCEKLEDKMKGTVVEGTIQKLFEGHHMNYIECINVDYKSTRKESFYDLQLDVKGCKDVYASFDKYVEVERLEGDNKYHAEGHDLQDAKKGVLFIDFPPVLQLQLKRFEYDFMRDTMVKINDRYEFPLQLDLDREDGRYLSPDADKSVRNLYTLHSVLVHSGGVHGGHYYAFIRPTLSDQWYKFDDERVTKEDVKRALEEQYGGEEELPQNNPGFNNPPFKFTKYSNAYMLVYIRESDKDKIICNVDEKDIAEHLRVRLKKEQEEKEDKRKYKAQAHLFTTIKVARDDDITEQIGKNIYFDLVDHEKVRSFRIQKQTPFQQFKEEVAKEFGVPVQLQRFWIWAKRQNHTYRPNRPLSPNEELQTVGQIREASNKANNAELKLFLEIERGPDDLPIPPPEKTSEDILLFFKLYDPENAVLRYVGRLMVKSSSKPMDIVGQLNKMAGFAPDEEIELFEEIKFEPCVMCEQIDKKTSFRLCQIEDGDIICYQKPLSIEESEFRYPDVPSFLEYVQNRELVRFRTLEKPKEDEFTMELSKLHTYDDVVERVAEKLGLDDPSKLRLTSHNCYSQQPKPQPIKYRGVDHLSDMLVHYNQTSDILYYEVLDIPLPELQGLKTLKVAFHSATKDEVIIHNIRLPKQSTVGDVINELKTKVELSHQDAELRLLEVFFHKIYKIFPSTERIENINDQYWTLRAEEIPEEEKNIGPNDRLIHVYHFTKEAGQNQQVQNFGEPFFLVIHEGETLEEIKTRIQKKLHVPDEDFAKWKFASFSMGRPDYLLDTDVVYNRFQRRDVYGAWEQYLGLEHIDNAPKRAYAANQNRHAYEKPVKIYN", "values": [{"measurement": "binding", "setting": "[3]", "result": "binds"}, {"measurement": "binding", "setting": "[2]", "result": "binds"}]}, {"molecule": "UBP13-HA in Arabidopsis transgenic seedlings (enzyme, UniProt Q84WU2 1-1115) MTMMTPPPLDQQEDEEMLVPNPDLVEGPQPMEVAQTDPAATAVENPPPEDPPSLKFTWTIPMFTRLNTRKHYSDVFVVGGYKWRILIFPKGNNVDHLSMYLDVADAANLPYGWSRYSQFSLAVVNQVNNRYSIRKETQHQFNARESDWGFTSFMPLSELYEPTRGYLVNDTVLIEAEVAVRKVLDYWSYDSKKETGFVGLKNQGATCYMNSLLQTLYHIPYFRKAVYHMPTTENDAPTASIPLALQSLFYKLQYNDTSVATKELTKSFGWDTYDSFMQHDVQELNRVLCEKLEDKMKGTVVEGTIQKLFEGHHMNYIECINVDYKSTRKESFYDLQLDVKGCKDVYASFDKYVEVERLEGDNKYHAEGHDLQDAKKGVLFIDFPPVLQLQLKRFEYDFMRDTMVKINDRYEFPLQLDLDREDGRYLSPDADKSVRNLYTLHSVLVHSGGVHGGHYYAFIRPTLSDQWYKFDDERVTKEDVKRALEEQYGGEEELPQNNPGFNNPPFKFTKYSNAYMLVYIRESDKDKIICNVDEKDIAEHLRVRLKKEQEEKEDKRKYKAQAHLFTTIKVARDDDITEQIGKNIYFDLVDHEKVRSFRIQKQTPFQQFKEEVAKEFGVPVQLQRFWIWAKRQNHTYRPNRPLSPNEELQTVGQIREASNKANNAELKLFLEIERGPDDLPIPPPEKTSEDILLFFKLYDPENAVLRYVGRLMVKSSSKPMDIVGQLNKMAGFAPDEEIELFEEIKFEPCVMCEQIDKKTSFRLCQIEDGDIICYQKPLSIEESEFRYPDVPSFLEYVQNRELVRFRTLEKPKEDEFTMELSKLHTYDDVVERVAEKLGLDDPSKLRLTSHNCYSQQPKPQPIKYRGVDHLSDMLVHYNQTSDILYYEVLDIPLPELQGLKTLKVAFHSATKDEVIIHNIRLPKQSTVGDVINELKTKVELSHQDAELRLLEVFFHKIYKIFPSTERIENINDQYWTLRAEEIPEEEKNIGPNDRLIHVYHFTKEAGQNQQVQNFGEPFFLVIHEGETLEEIKTRIQKKLHVPDEDFAKWKFASFSMGRPDYLLDTDVVYNRFQRRDVYGAWEQYLGLEHIDNAPKRAYAANQNRHAYEKPVKIYN", "values": [{"measurement": "binding", "setting": "[4]", "result": "binds"}]}, {"molecule": "UBP13-cVenus (enzyme, UniProt Q84WU2 1-1115) MTMMTPPPLDQQEDEEMLVPNPDLVEGPQPMEVAQTDPAATAVENPPPEDPPSLKFTWTIPMFTRLNTRKHYSDVFVVGGYKWRILIFPKGNNVDHLSMYLDVADAANLPYGWSRYSQFSLAVVNQVNNRYSIRKETQHQFNARESDWGFTSFMPLSELYEPTRGYLVNDTVLIEAEVAVRKVLDYWSYDSKKETGFVGLKNQGATCYMNSLLQTLYHIPYFRKAVYHMPTTENDAPTASIPLALQSLFYKLQYNDTSVATKELTKSFGWDTYDSFMQHDVQELNRVLCEKLEDKMKGTVVEGTIQKLFEGHHMNYIECINVDYKSTRKESFYDLQLDVKGCKDVYASFDKYVEVERLEGDNKYHAEGHDLQDAKKGVLFIDFPPVLQLQLKRFEYDFMRDTMVKINDRYEFPLQLDLDREDGRYLSPDADKSVRNLYTLHSVLVHSGGVHGGHYYAFIRPTLSDQWYKFDDERVTKEDVKRALEEQYGGEEELPQNNPGFNNPPFKFTKYSNAYMLVYIRESDKDKIICNVDEKDIAEHLRVRLKKEQEEKEDKRKYKAQAHLFTTIKVARDDDITEQIGKNIYFDLVDHEKVRSFRIQKQTPFQQFKEEVAKEFGVPVQLQRFWIWAKRQNHTYRPNRPLSPNEELQTVGQIREASNKANNAELKLFLEIERGPDDLPIPPPEKTSEDILLFFKLYDPENAVLRYVGRLMVKSSSKPMDIVGQLNKMAGFAPDEEIELFEEIKFEPCVMCEQIDKKTSFRLCQIEDGDIICYQKPLSIEESEFRYPDVPSFLEYVQNRELVRFRTLEKPKEDEFTMELSKLHTYDDVVERVAEKLGLDDPSKLRLTSHNCYSQQPKPQPIKYRGVDHLSDMLVHYNQTSDILYYEVLDIPLPELQGLKTLKVAFHSATKDEVIIHNIRLPKQSTVGDVINELKTKVELSHQDAELRLLEVFFHKIYKIFPSTERIENINDQYWTLRAEEIPEEEKNIGPNDRLIHVYHFTKEAGQNQQVQNFGEPFFLVIHEGETLEEIKTRIQKKLHVPDEDFAKWKFASFSMGRPDYLLDTDVVYNRFQRRDVYGAWEQYLGLEHIDNAPKRAYAANQNRHAYEKPVKIYN", "values": [{"measurement": "binding", "setting": "[5]", "result": "binds"}, {"measurement": "binding", "setting": "[6]", "result": "binds"}]}]}
